The exact form of at least one protein or probe is not confirmed. For some assays here: The comparison behind a weaker result is the experiment's own reference, which may not be listed here. For some assays here: At least one verdict was read from the data and is not stated in words by the source.
What was measured:
Assay in all cases: EMSA
Conditions in all cases: EMSA: 20 mM Tris-HCl pH 7.5, 300 mM NaCl, 5 mM b-mercaptoethanol, 20% glycerol, agarose gel in Tris-glycine pH 8.0 (8.5 for FAM-RNA), 4 C; recombinant protein; label: 5' 6-FAM
BUD32 + CGI121 = system: BUD32 + CGI121
[1] = system: KAE1 + BUD32 G226A + CGI121 + PCC1
[2] = system: KAE1 + BUD32 G226R + CGI121 + PCC1
[3] = system: KAE1 + BUD32 I225A + CGI121 + PCC1
[4] = system: KAE1 + BUD32 K221A + CGI121 + PCC1
[5] = system: KAE1 + BUD32 M224A + CGI121 + PCC1
[6] = system: KAE1 + BUD32 R222A + CGI121 + PCC1
[7] = system: KAE1 + BUD32 T223A + CGI121 + PCC1

Measured: binding result

GCGCCUGUAGCUCAGUGGAUAGAGCGUCUGUUUCCUAAGCAGAAGGUCGUAGGUUCGACCCCUACCUGGCGCGCCA [5'-6FAM-tRNAArgCCU]
binds more weakly: BUD32 + CGI121
binds: all other assays above

Reference: paper PMC11077089, “Molecular basis of A. thaliana KEOPS complex in biosynthesizing tRNA t^6A” (Nucleic Acids Research, 2024)
